The results in this text go back to patent publication US6740678B2, “Method of treatment of cardiovascular injuries” (Children's Medical Center Corporation, priority 1998, dated 2004).

The nature of the data set: Serum cholesterol in treated Apo E-/- mice. The data set is classed as in vivo. The following applies: 36 weeks, after 16 weeks of treatment; control 918.

Consider “O-chloracetyl-carbamoylfumagillol [TNP-470]”, for which the “Median cholesterol level at the time of sacrifice” value was 823 mg/dL.

Turning to endostatin, the “Median cholesterol level at the time of sacrifice” value amounted to 877 mg/dL.
